Experimental data reported in patent publication US5422118A, “Transdermal administration of amines with minimal irritation and high transdermal flux rate” (priority 1992, dated 1995).
Where a name gives a salt, the structure may show the parent alone.

Test system: skin
Conditions: procedure not specified

Structure (SMILES): CN(C)CCOC(c1ccccc1)c1ccccc1 [diphenhydramine hydrochloride]
- skin irritation (in words): minimally irritating
